Measurements reported in PubChem BioAssay AID1259254 (NCATS, 2017)
Aim: 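Finding genes that stop cells copying their DNA twice in one cycle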 (primary screen). Cell system: human HCT116 colorectal cancer cells. Reagents: single siRNA against human genes. Time to read-out: 3 days. Detection: 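Nuclei stained with Hoechst and imaged; cell-cycle phase assigned by DNA content; G2 share scaled per plate, non-targeting siRNA 0%, GMNN siRNA 100%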. Scale: G2 robust z-score and G2 cells, % of GMNN control: higher = more G2 cells, more excess DNA replication. Hit rule: 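Active siRNAs have a G2 robust z of 5 or more median absolute deviations over the median, which in these data means about 38% or higher of GMNN control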.
This is one part, drawn at random, of about 59,000 reagents. About 1,550 of them (2.6%) count as active. 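G2 share is only a proxy for re-replication; each gene was hit by three separate siRNAs, and active genes were retested.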 Entries without a mark were called inactive. The numbers tell different reagents against one gene apart. Further read-outs or replicates are left out here. Reagent sequences are not shown. Not stated in the record: the amount of reagent.

gene knocked down	siRNA no.	G2 robust z-score	G2 cells, % of GMNN control
APTX (GeneID 54840)	1	-0.0289	2.76
APTX (GeneID 54840)	2	-0.936	-3.62
APTX (GeneID 54840)	3	-0.0841	2.38
KIF11 (GeneID 3832)	1	11.4 (active)	83.1
KIF11 (GeneID 3832)	2	11.4 (active)	83.2
KIF11 (GeneID 3832)	3	18.3 (active)	131
PSG2 (GeneID 5670)	1	0.0455	3.29
PSG2 (GeneID 5670)	2	0.128	3.87
PSG2 (GeneID 5670)	3	-0.366	0.393
ANKRD42 (GeneID 338699)	1	-0.176	1.73
ANKRD42 (GeneID 338699)	2	-0.456	-0.24
ANKRD42 (GeneID 338699)	3	0.515	6.59
GRIK4 (GeneID 2900)	1	0.611	7.27
GRIK4 (GeneID 2900)	2	-0.256	1.17
GRIK4 (GeneID 2900)	3	-0.213	1.47
ESM1 (GeneID 11082)	1	1.16	11.1
ESM1 (GeneID 11082)	2	-0.484	-0.439
ESM1 (GeneID 11082)	3	3.58	28.1
HACD2 (GeneID 201562)	1	-0.384	0.268
HACD2 (GeneID 201562)	2	-0.589	-1.17
HACD2 (GeneID 201562)	3	-0.754	-2.34
SMURF2 (GeneID 64750)	1	2.97	23.9
SMURF2 (GeneID 64750)	2	-0.627	-1.44
SMURF2 (GeneID 64750)	3	3.75	29.3
HAPSTR1 (GeneID 29035)	1	5.22 (active)	39.7
HAPSTR1 (GeneID 29035)	2	2.76	22.4
HAPSTR1 (GeneID 29035)	3	0.312	5.16
FAF2 (GeneID 23197)	1	2.38	19.7
FAF2 (GeneID 23197)	2	0.407	5.83
FAF2 (GeneID 23197)	3	1.16	11.1

Targets above whose target name begins with P or p (3):
gene knocked down	siRNA no.	G2 robust z-score	G2 cells, % of GMNN control
PSG2 (GeneID 5670)	1	0.0455	3.29
PSG2 (GeneID 5670)	2	0.128	3.87
PSG2 (GeneID 5670)	3	-0.366	0.393
